Over roughly 33,000 sequences, “E-score (-0.5 to 0.5)” has its median near -0.0014; the highest 2% begin near 0.25. This is one part of the list.
Molecular target: T1, Cad1 (UniProt P24813)
T1 sequence: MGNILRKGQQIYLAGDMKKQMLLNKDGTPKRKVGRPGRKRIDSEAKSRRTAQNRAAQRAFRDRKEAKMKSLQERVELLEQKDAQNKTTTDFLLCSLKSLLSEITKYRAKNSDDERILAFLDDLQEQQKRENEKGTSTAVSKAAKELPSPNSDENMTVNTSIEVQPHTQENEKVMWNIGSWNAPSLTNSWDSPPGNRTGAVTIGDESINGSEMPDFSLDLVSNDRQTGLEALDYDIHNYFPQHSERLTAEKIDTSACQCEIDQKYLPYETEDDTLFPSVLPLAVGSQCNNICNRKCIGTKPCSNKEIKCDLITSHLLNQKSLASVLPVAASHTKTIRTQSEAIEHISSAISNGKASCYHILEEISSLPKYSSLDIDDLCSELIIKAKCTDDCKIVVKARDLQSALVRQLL
Assay: PBM E-score (8-mer binding enrichment) (E-score (-0.5 to 0.5)); higher = stronger / more preferred TF binding
Conditions: protein concentration: 100 nM; construct: GST-full length
Protocol: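 Universal 'all 10-mer' protein binding microarrays (Agilent AMADID 015681) probed with GST-tagged S. cerevisiae TFs (full-length or DBD) made by in vitro transcription/translation (PURExpress), about 100-200 nM. Bound TF was detected with fluorescent anti-GST. Each ungapped 8-mer (which stands for itself and its reverse complement) is scored by the PBM enrichment score (E-score), a modified Wilcoxon-Mann-Whitney statistic from -0.5 to +0.5, computed with the Universal PBM Analysis Suite. Scale: above 0.35 generally sequence-specific binding.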

| Sequence | PBM E-score |
| --- | --- |
| CGAGATCC | 0.0835 |
| TGTTATAA | 0.253 |
| GCGGAGAA | 0.0409 |
| AATGGACA | 0.056 |
| ATTCACGG | 0.0384 |
| AGCTAGTG | -0.0897 |
| GTTAAGAA | -0.0381 |
| CCTCGTGA | 0.016 |
| AACCCAAT | -0.0923 |
| CAACCCAC | 0.00919 |
| CCCTGTAC | -0.22 |
| CCGACAAA | 0.0538 |
| CCGAGAAG | -0.0688 |
| AGTTCACG | -0.0961 |
| CCTGGCGC | 0.0094 |
| CAACTCCC | -0.0301 |
| CGCTTCGC | -0.0714 |
| AAGTTCAC | 0.0544 |
| ATAGTGTC | 0.111 |
| CGGTGAGC | -0.13 |
| CCTGTCTA | 0.0127 |
| CGCAAGTA | 0.182 |

| Sequence | PBM E-score |
| --- | --- |
| AACCGAAC | 0.0766 |
| CCGCTCGA | -0.00781 |
| GCACTTCA | 0.078 |
| CCTCGAAC | -0.0906 |
| CTCTCGGA | 0.0354 |
| CATATAAA | 0.0106 |
| TCTGAAAA | -0.0126 |
| ATGCAAAA | 0.11 |
| GAGCCACC | -0.208 |
| CATCACCG | -0.0817 |
| CGGATCTC | 0.109 |
| CCCATCCG | -0.125 |
| CATTATGC | 0.0922 |
| GGGACACA | -0.066 |
| CCCATATA | 0.0495 |
| AGTGAAAC | 0.136 |
| GAGTTACA | -0.00694 |
| CATATGAC | 0.067 |
| ATATTCTC | 0.102 |
| ATTTCTTG | 0.207 |
| ACAAGGTC | -0.185 |
| ATCCATCC | 0.0574 |

Two entries from above, with bars between the fields.
Sequence | PBM E-score
ATTTCTTG | 0.207
ACAAGGTC | -0.185

More entries

| Sequence | PBM E-score |
| --- | --- |
| GACGCAAC | 0.00558 |
| AAGTCCAT | -0.0274 |
| GTAAGCCA | 0.128 |
| CATCATGC | 0.0814 |
| AAGCGGAA | 0.137 |
| AGTTAATC | 0.161 |
| AGTCAACG | -0.0686 |
| ATGGAACG | -0.0699 |
| GAAAACAC | 0.0902 |
| ATCCAGAC | -0.0739 |
| GCACCAAA | -0.0001 |
| CTTAGTAC | -0.0286 |
| AGAGGTGA | -0.069 |
| ACGCCCTA | -0.16 |
| AGCCGTGA | 0.112 |
| ACAGTTAA | 0.00177 |
| AGTTGCGG | 0.181 |
| ATTAGGAC | -0.102 |
| TCTTACAA | 0.0371 |
| CAACGAAA | 0.162 |
| ACGGGAGG | -0.173 |
| GTTAATCA | 0.318 |

| Sequence | PBM E-score |
| --- | --- |
| CCAAGTTC | -0.121 |
| GTGTTCCA | -0.115 |
| CGGCCCTA | 0.0924 |
| GCCGCTCA | -0.0172 |
| GTAAACTA | 0.108 |
| GCACCAGC | -0.0881 |
| ACCCTCAG | -0.0435 |
| GCGAGCGA | 0.196 |
| AATGTGGC | 0.0121 |
| AAGATACT | -0.0176 |
| ATCGCATG | 0.0414 |
| ATAATGTG | 0.15 |
| ACGACAGC | -0.0181 |
| AATAGATT | 0.0615 |
| CACCCTAG | 0.111 |
| CGATTAAG | 0.106 |
| CGTATAAG | -0.104 |
| ATCTGACG | -0.142 |
| CGTGTCGA | 0.181 |
| GCAATAAA | 0.2 |
| AATATACG | -0.159 |
| AGCCTACC | -0.282 |

| Sequence | PBM E-score |
| --- | --- |
| CAGGCAAC | 0.00195 |
| CATAACTC | -0.0187 |
| CTGGTCAC | -0.0271 |
| CAGGCTAC | -0.078 |
| CGCATATC | 0.318 |
| GCCCCAGA | -0.158 |
| CATGATCG | 0.00824 |
| CCACACCC | -0.0237 |
| TACTCCCA | 0.0842 |
| ATAAATTC | 0.091 |
| AACAAGGT | -0.0755 |
| AAGTCTAC | -0.0687 |
| CCGCACTC | 0.122 |
| AAGCATAT | 0.189 |
| AACCTTCA | 0.0626 |
| CGGCTAGA | 0.00637 |
| ACCGGACA | -0.101 |
| CAAAGCCC | -0.219 |
| AGGAGTTG | 0.031 |
| ACGTGGAC | -0.0819 |
| AACACTTC | 0.208 |

Reprinted at random: six records from the list, in no set order.

| Sequence | PBM E-score |
| --- | --- |
| ACAGTTAA | 0.00177 |
| AGAGGTGA | -0.069 |
| ATGGAACG | -0.0699 |
| ATCGCATG | 0.0414 |
| AAGCGGAA | 0.137 |
| AGTTCACG | -0.0961 |
